Data reported in publication PMC7819943, “Rice protein-binding microarrays: a tool to detect cis-acting elements near promoter regions in rice”.
This is one part of the list.

Protein sequences, listed by entry. Tags and fused reporters are not part of them.
UniProt Q0JBA9, entry or part of it: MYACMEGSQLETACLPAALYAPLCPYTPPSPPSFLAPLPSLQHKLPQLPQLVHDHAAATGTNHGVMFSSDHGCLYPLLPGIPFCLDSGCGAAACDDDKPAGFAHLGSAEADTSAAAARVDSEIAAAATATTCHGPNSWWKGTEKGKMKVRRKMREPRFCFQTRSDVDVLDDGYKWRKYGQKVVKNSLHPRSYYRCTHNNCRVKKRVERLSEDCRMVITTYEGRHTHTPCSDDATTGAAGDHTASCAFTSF

target: OsWRKY34 (Oryza sativa, UniProt Q0JBA9 1-250); assay: protein-binding microarray (RPBM); PBS, 2% BSA, 51.3 ng/ul salmon testes DNA, 50 uM zinc acetate, 200 nM TF, 25 C, 1 h; high values mean tight binding; conditions: protein: recombinant; tags: N-terminal polyhistidine and DsRed monomer fusion (pET32a); label: CyDye5-dUTP incorporated in the synthesized complementary strand; 3' TTTTT single-stranded linker to array surface; dsDNA, one strand shown
How it was run: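 Binding signal here means per-feature fluorescence intensity in arbitrary units. The values were read on an Axon 4000B scanner after a custom Agilent array, double-stranded by primer extension with Cy5-dUTP, was incubated with 200 nM protein at 25 °C for 1 h in PBS with 2% BSA, salmon testes DNA and 50 µM zinc acetate, then washed. The proteins were transcription factors with an N-terminal polyhistidine tag and DsRed, expressed in E. coli BL21-CodonPlus and purified on Ni–NTA.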

Row | Sequence | binding signal
1 | ATATTTTTTGTTGGACCAACACATTATCTTATTGGGCTGACGGAGTCACCTAGTGCAG | 8620 fluorescence intensity (a.u.)
2 | CTTCTCTTACCTCGGTGGGTGCTTAATGTGCTGGTTTGAACGGAGTCACCTAGTGCAG | 8740 fluorescence intensity (a.u.)
3 | CGAAATAAATACTAGGTCGGTCCAACCCCGAGGTTTCTTCCGGAGTCACCTAGTGCAG | 8950 fluorescence intensity (a.u.)
4 | GTACCATTACACGGGTCTCTTTACATGTTAAATAAATTTTCGGAGTCACCTAGTGCAG | 9650 fluorescence intensity (a.u.)
5 | CTACAAAATAAACGTGTTTATCCAACATCCTCGTCTGTAACGGAGTCACCTAGTGCAG | 8050 fluorescence intensity (a.u.)
6 | CACAGCGATTTCTTCTCTCTCTTTCGCCGTCGCATTCGCCCGGAGTCACCTAGTGCAG | 12800 fluorescence intensity (a.u.)
7 | ATTCCTTCTTGTTATTTGTGGTTTTGAGATGTTTTTGCTTCGGAGTCACCTAGTGCAG | 8840 fluorescence intensity (a.u.)
8 | TGCCACCGCGCTGCCCGCCGTCTACCGCCACCGCCCCGCGCGGAGTCACCTAGTGCAG | 8110 fluorescence intensity (a.u.)
9 | TTAAGTTTTCAATGATTTTTTTCTACTTGACTTTTTTTTTCGGAGTCACCTAGTGCAG | 8540 fluorescence intensity (a.u.)
10 | CTTTGGTCAAAGTCAAATTGTTTTAAGTTTGACCAAGTTTCGGAGTCACCTAGTGCAG | 19600 fluorescence intensity (a.u.)
11 | GCCCTTGCTTTACGATTTAATTGTGATTTTACCCTTGTTTCGGAGTCACCTAGTGCAG | 9250 fluorescence intensity (a.u.)
12 | AAGCTTCTCGCCGTGCTCGTCCACATTCCGCCAGCTGGCCCGGAGTCACCTAGTGCAG | 8240 fluorescence intensity (a.u.)
13 | GGTTTTGCTATTTCACTTGCGACAGTTTTTCGGGTTCCTACGGAGTCACCTAGTGCAG | 8310 fluorescence intensity (a.u.)
14 | ACGTCTTCCTGTCCACGTCGTTGAACTTAACCACGAAGTACGGAGTCACCTAGTGCAG | 11800 fluorescence intensity (a.u.)
15 | GAACGGTTTACACATAGCCATGCACCGATTTTTCTCGATACGGAGTCACCTAGTGCAG | 8780 fluorescence intensity (a.u.)
16 | GAATTCTTGTGTTCCAAGCATTTCGATTTGCTCCTCTCTTCGGAGTCACCTAGTGCAG | 9020 fluorescence intensity (a.u.)
17 | CAACCTGATCCTATCTCACCATCTCGTGATAAAAGCGCCTCGGAGTCACCTAGTGCAG | 9540 fluorescence intensity (a.u.)
18 | CTGTTCTGGCGCTCCTCTCTACGGGTGATCGCTAACTTGCCGGAGTCACCTAGTGCAG | 8390 fluorescence intensity (a.u.)
19 | GTGATACTAATAGCAGTTTCTTTGCTTGTTTGTTTGTTTCCGGAGTCACCTAGTGCAG | 8130 fluorescence intensity (a.u.)
20 | GCTCGGTGTCCTTACAAATTGTTTGCTTTGCACTTATTATCGGAGTCACCTAGTGCAG | 8940 fluorescence intensity (a.u.)
21 | GATGACGCCGTTGACTTTTTCTCACATGTTTGACCAATCGCGGAGTCACCTAGTGCAG | 36900 fluorescence intensity (a.u.)
22 | TCAAAATATTTGACACCGTTGACTTTTTAGGACGTGTTTACGGAGTCACCTAGTGCAG | 24900 fluorescence intensity (a.u.)
23 | TTTTGACTTTACCATTCAATTGCCTTAAACCAACGGGCCTCGGAGTCACCTAGTGCAG | 8270 fluorescence intensity (a.u.)
24 | TGTCCATATTCTAATTAATTGGTGAACGGTACCATTTCCGCGGAGTCACCTAGTGCAG | 8200 fluorescence intensity (a.u.)
25 | GGTAAATTTTATGTAAATTAACCCGGGTATTATGGTTCTTCGGAGTCACCTAGTGCAG | 8330 fluorescence intensity (a.u.)
26 | TCGTCTCCTCGCCCGCCGCTTTGTGCCGAATCCCCATCCTCGGAGTCACCTAGTGCAG | 9060 fluorescence intensity (a.u.)
27 | TTGGGTTGGGTTGGGTGGTCCATTCTGTACGGTGCGCCGGCGGAGTCACCTAGTGCAG | 19600 fluorescence intensity (a.u.)

From entry 21 to 24, copied from above:
Row | Sequence | binding signal
21 | GATGACGCCGTTGACTTTTTCTCACATGTTTGACCAATCGCGGAGTCACCTAGTGCAG | 36900 fluorescence intensity (a.u.)
22 | TCAAAATATTTGACACCGTTGACTTTTTAGGACGTGTTTACGGAGTCACCTAGTGCAG | 24900 fluorescence intensity (a.u.)
23 | TTTTGACTTTACCATTCAATTGCCTTAAACCAACGGGCCTCGGAGTCACCTAGTGCAG | 8270 fluorescence intensity (a.u.)
24 | TGTCCATATTCTAATTAATTGGTGAACGGTACCATTTCCGCGGAGTCACCTAGTGCAG | 8200 fluorescence intensity (a.u.)

(listing goes on)

Row | Sequence | binding signal
28 | CTAGTTGCATCAGTATAGCACATTCCTCTCTGATCGTTTGCGGAGTCACCTAGTGCAG | 9570 fluorescence intensity (a.u.)
29 | TTGCCTATTCACCCAAATTATTTGCTCATTCTCTGTAACCCGGAGTCACCTAGTGCAG | 11500 fluorescence intensity (a.u.)
30 | AGCTCTTCACTTTCCTTGTCTGCTCCAGGAGTAAGTAGCCCGGAGTCACCTAGTGCAG | 9470 fluorescence intensity (a.u.)
31 | TCGCCCAACTGCTCGCATCTTTCTCTCTGCCCGTGCCAATCGGAGTCACCTAGTGCAG | 10900 fluorescence intensity (a.u.)
32 | AAATTAGACACAGTAATCTATTTTTTTTCTCTTTATTTACCGGAGTCACCTAGTGCAG | 9100 fluorescence intensity (a.u.)
33 | TTCAAATCTCATCCGAATTTTTTGTTTTTTATTTTTTTTTCGGAGTCACCTAGTGCAG | 8280 fluorescence intensity (a.u.)
34 | CCCCTGTCAATACAACCAGCTGCACGCCCATTCGTCTCAACGGAGTCACCTAGTGCAG | 10900 fluorescence intensity (a.u.)
35 | GTCACATTTTCTACATCTCATCCTTCCATTCCACTCCCTTCGGAGTCACCTAGTGCAG | 11200 fluorescence intensity (a.u.)
36 | TTTTCTCCGCGTGGCCTTTTGTGTTTCTTTTTTTCTGTAACGGAGTCACCTAGTGCAG | 15300 fluorescence intensity (a.u.)
37 | GCAGTTTTCAATACCATTTCTGGTGTTTGTTTTGTACCGCCGGAGTCACCTAGTGCAG | 8780 fluorescence intensity (a.u.)
38 | ACTCCTCTATTTGGTAGTATTGTTTTTCGGCTCGTGAGTTCGGAGTCACCTAGTGCAG | 8670 fluorescence intensity (a.u.)
39 | TCACCATGTGCGAGCCGCCAATTCAAACTCTTTGTCTGTTCGGAGTCACCTAGTGCAG | 12300 fluorescence intensity (a.u.)
40 | ACCAGCTTCAACTCGGCATCTCCAAAAATTTTATCCACCTCGGAGTCACCTAGTGCAG | 8470 fluorescence intensity (a.u.)
41 | AACTTGGCCTCTTTTCATGCCTCTGAACCTACGAGTTCACCGGAGTCACCTAGTGCAG | 9370 fluorescence intensity (a.u.)
42 | GGAACTACCACAGTGGTGCTTCTTGCTGCTGAGTTCCTGACGGAGTCACCTAGTGCAG | 8270 fluorescence intensity (a.u.)
43 | TCCATACAAACCATACACATTGTGACCATGACACTCAATCCGGAGTCACCTAGTGCAG | 8100 fluorescence intensity (a.u.)
44 | TCGGGATTTCTTATTTGGGAGGATATGTTTCGGGTTTCTACGGAGTCACCTAGTGCAG | 10600 fluorescence intensity (a.u.)
45 | CATGACCACCGTCGGCTACGGCGACTTCGTCCCGCCAACGCGGAGTCACCTAGTGCAG | 8100 fluorescence intensity (a.u.)
46 | ACCAACTTCCCAATCTCACCCACCCCACCAATCCCCACCACGGAGTCACCTAGTGCAG | 8540 fluorescence intensity (a.u.)
47 | GAGCCGCGCCGGTGCCACCACTCGCGCCGCCGCTCCGGCGCGGAGTCACCTAGTGCAG | 8150 fluorescence intensity (a.u.)
48 | TATTTTTTGGTTGTCCTTTGTTTTTTTAAAAAATATTTGTCGGAGTCACCTAGTGCAG | 8170 fluorescence intensity (a.u.)
49 | ATGGGGCTCTTTTGGTTTGTTTGGTAGTTGGGTGGTGATGCGGAGTCACCTAGTGCAG | 15500 fluorescence intensity (a.u.)
50 | GTCAGTTCGCCGGCCGCCGCCGCCTCCGACGATCCCCATCCGGAGTCACCTAGTGCAG | 8950 fluorescence intensity (a.u.)
51 | TACTATCTTAGGTTGTGTTCTGTTATCAGCTTTTCTAACCCGGAGTCACCTAGTGCAG | 8310 fluorescence intensity (a.u.)
52 | CGCACATCTGCCTCCTGTTCACGCGAACCCACCACCCATGCGGAGTCACCTAGTGCAG | 9260 fluorescence intensity (a.u.)
53 | ACGAGATCCACCATGCAGCCTTCACGCGACAGTCGCACATCGGAGTCACCTAGTGCAG | 8040 fluorescence intensity (a.u.)
54 | CCCTGTTTTCCACGGAGGAGCATAAATCCTGATCATTTCTCGGAGTCACCTAGTGCAG | 8700 fluorescence intensity (a.u.)
